# Primary screen of a compound library

Mtb growth Cornell: 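Whole-cell assay for inhibitors of Mycobacterium tuberculosis growth, labelled Cornell in the record; the read-out is not stated. The concentration is filed as 10 mM, unlikely as a test dose, so the dose is not known. Higher means stronger inhibition (inferred from two other growth screens of the library). Size under these conditions: about 53,000 compounds, about 900 of them at 50% or above in at least one test.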
Mtb heat-shock: 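Assay on Mycobacterium tuberculosis, filed only as a heat shock assay from Cornell; the read-out is not stated. The concentration is filed as 10 mM, unlikely as a test dose, so the dose is not known. Direction is inferred from retests: higher values go with stronger inhibition. Size under these conditions: about 69,000 compounds, about 930 of them at 50% or above in at least one test.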

The filed quantity is “Percent Effect” (%).
The controls that fix the scale are not given in the record; negative values are as filed.
The compounds are a random part of those screened.
A dash means the value is not listed here; it may have been measured.

compound | Mtb growth Cornell | Mtb heat-shock
COc1cccc(S(=O)(=O)CCNCCn2cccn2)c1 | 24.89% | -18.92%
COc1nc2c(cc1C(=O)N1C[C@@H](N)C[C@H]1C(=O)NC(C)C)CCC2 | -32.69% | -35.99%
CCOc1ccc(Cl)c(C(=O)NCCc2ncc[nH]2)n1 | - | 4.177%
COc1ccc(NC(C)=O)cc1S(=O)(=O)Nc1ccon1 | 15.94% | 17.9%
CC(CNC(=O)c1cc(Cl)ccc1I)N1CCCC1 (centres unmarked) | - | -5.684%
O=C(O)C(F)(F)F.O=C(O)C(F)(F)F.[H][C@@]12CCN(c3ncccn3)[C@]1([H])CC[C@@H](C(=O)N1CCN(C)CC1)O2 | -21.2% | 6.403%
COc1ccc(NC(=O)N2CCN(CCSc3ccccc3)CC2)cc1 | 17.6% | 15.15%
CN(CCCOc1ccccc1)S(=O)(=O)N1CCOCC1 | 3.593% | 2.904%
N#Cc1ccc(N2CCCN(C(=O)CC3CCCO3)CC2)cc1 (centres unmarked) | 2.475% | -11.08%
CCOC(=O)c1sc2ccsc2c1CNC(=O)CCOC | - | -35.81%
Cn1ncc2c1NC(=O)CC2c1ccc(Cl)cc1Cl (centres unmarked) | 59.83% | 51.94%
Cc1nc(N)cc(NCc2csc(N(C)C)n2)n1 | - | -205.8%
CS(=O)(=O)CCN1CCCC1c1noc(C2CC2)n1 (centres unmarked) | - | -0.8915%
CC1=NOC(C(=O)N(C)CCCn2nc(C)cc2C)C1 (centres unmarked) | -40.03% | 5.524%
Cc1nc(CN2CCOC3(CCCC3)C2)no1 | 16.27% | -1.002%
CCc1cnc(CN(C)C2CCN(c3sccc3C#N)C2=O)s1 (centres unmarked) | - | -53.08%
CN(Cc1ccccc1)S(=O)(=O)N1C[C@H](C2CC2)[C@@H](N)C1 | -17.73% | -8.834%
CC(=O)N1CCN(C(=O)CCOc2ccc(C(C)C)cc2)CC1 | - | 8.206%
Cn1cc(N2CC3(CCN(Cc4cccnc4)CC3)OCC2=O)cn1.O=C(O)C(F)(F)F.O=C(O)C(F)(F)F | 9.827% | -15.24%
O=C(O)C(F)(F)F.O=C(c1cccnc1)N1CCOC2(COCCN(c3cncnc3)C2)C1 (centres unmarked) | -11.96% | -7.874%
COc1cccc2c1ccn2CCNC(=O)CC(C)C | -27.68% | 6.712%
Cc1cccc(O[C@H]2COCCN(C3CCC3)C2)n1 | 5.291% | -5.467%
CCc1noc(C(C)N2CCN(Cc3noc(C4CC4)n3)CC2)n1 (centres unmarked) | - | -10.12%
Nc1nc2c(c(N3CCCC3)n1)CCN(Cc1ccccn1)CC2 | -20.66% | -7.423%
Cc1oc(-c2ccoc2)nc1CN1CCCCC1CCn1cccn1 (centres unmarked) | 5.1% | 0.1066%
CCc1nsc(N2CCN(Cc3ccno3)CC2)n1 | -39.4% | 11.76%
CCCN(Cc1cccnc1)C1CC(C)(C)NC(C)(C)C1.O=C(O)CC(O)(CC(=O)O)C(=O)O | - | -15.86%
CN(CCO)Cc1nnc(C2CCN(C(=O)c3ccccn3)CC2)n1C | 3.01% | -1.276%
CC(C)N1CCN(S(=O)(=O)c2ncn(C)c2Cl)CC1 | -33.33% | -2.476%
O=C(O)C(F)(F)F.c1cncc(N2CCCn3nnc(COCC4CC4)c3C2)c1 | 20.24% | 8.551%
COCCN(C)CC1CCCN1S(=O)(=O)c1cccc(F)c1F (centres unmarked) | 13.47% | 4.997%
CCCn1cc(C(=O)N2CCCC(Cc3nccs3)C2)cn1 (centres unmarked) | -22.26% | -14.19%
Cc1sc2ncnc(N3CCCC3Cn3cccn3)c2c1C (centres unmarked) | 10.47% | 13.86%
CCn1ccnc1CN1CCN(C(C)C(=O)N2CCCC2)CC1 (centres unmarked) | -13% | -13.73%
Cc1ccc(C)c2c(O)cc(CNCC(N)=O)nc12 | -24.01% | -25.7%
O=C(Nc1cnn(CCN2CCOCC2)c1)c1ccccc1O | - | 0.5352%
CCN(C(=O)NCc1ccccc1OC(F)F)C(C)c1cccnc1 (centres unmarked) | 4.083% | 8.802%
CS(=O)(=O)N1CCN(C(=O)c2cccc(Cl)c2)CC2(CNC(=O)C2)C1 (centres unmarked) | -4.79% | -0.2513%
O=C(C1CC1)N1CC[C@H](c2nnc(Cc3c[nH]c4ccccc34)o2)C1 | 4.423% | 3.724%
[H][C@@]12CN(Cc3ccc(C)s3)C[C@]1([H])C(=O)N(CC1CCN(C)CC1)C2 | - | -20.41%
Cc1ccc(C2(CN(C)Cc3sccc3C)CCNCC2)nc1 | - | -20%
Cc1oc(-c2ccco2)nc1CC(=O)N1CCC(C(O)C(F)(F)F)CC1 (centres unmarked) | - | -9.22%
CSCCC(=O)N1CCc2c(ncnc2N2CCOCC2)C1 | 11.54% | -11.38%
NCCc1nc(N(Cc2cncs2)C2CC2)c2ccccc2n1 | -19.06% | -30.71%
Cc1c[nH]c(C2CCCN(C(=O)CCc3c(C)n[nH]c3C)C2)n1 (centres unmarked) | 19.57% | 0.3525%
N#Cc1c(N2CCCN(C3CCOCC3)CC2)nc2ccccn12 | 4.445% | 5.788%
CCOC(=O)c1cnn(-c2cc(Oc3ccccc3C)ncn2)c1N | - | -10.69%
Cc1ccc(S(=O)(=O)NC(=O)c2cc(S(C)(=O)=O)ccc2C)s1 | - | 5.558%
NS(=O)(=O)CCN1CCN(c2ccccc2O)CC1 | -28.73% | -28.39%
O=C(Nc1nncs1)N1CCC(c2ccc(O)cc2)CC1 | 37.14% | 10.88%
[H][C@@]12CCN(C(C)=O)C[C@]1([H])OCCN(c1ccsc1)C2=O | -26.87% | -17.7%
CCc1ccsc1C(=O)NCCn1nc2ccccn2c1=O | - | -44.41%
[H][C@]12CC[C@@H](N(C)c3ccc(C)nn3)[C@@]1([H])CN(C(=O)Cc1cccs1)C2 | -1.015% | 25.37%
O=C(O)C(F)(F)F.O=C(O)C(F)(F)F.[H][C@@]12COC[C@]1(COCc1ccccn1)CN(c1cc(OC)ncn1)C2 | -50.48% | -9.614%

For reference, 5 entries once more:

compound	Mtb growth Cornell	Mtb heat-shock
CN(CCCOc1ccccc1)S(=O)(=O)N1CCOCC1	3.593%	2.904%
CN(Cc1ccccc1)S(=O)(=O)N1C[C@H](C2CC2)[C@@H](N)C1	-17.73%	-8.834%
CC(C)N1CCN(S(=O)(=O)c2ncn(C)c2Cl)CC1	-33.33%	-2.476%
COc1nc2c(cc1C(=O)N1C[C@@H](N)C[C@H]1C(=O)NC(C)C)CCC2	-32.69%	-35.99%
CCN(C(=O)NCc1ccccc1OC(F)F)C(C)c1cccnc1 (centres unmarked)	4.083%	8.802%

Source: ChEMBL document CHEMBL3988442, “University of Dundee, Small-Polar-MMV Screening Library” (2021).